PubChem BioAssay AID1259405 | NCATS, 2018
In all, the deposit lists about 50,000 reagents; this is an unselected part. Of all reagents, about 4,000 (8%) got an active call. 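Mouse siRNA library applied to hamster cells; one well for each siRNA.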 A number with no mark means an inactive call. Reagents against one gene are numbered here.

Test: 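Silenced genes that increase secreted GFP made by CHO cells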 (primary screen)
Cell system: Chinese hamster CHO-K1 ovary cells with stable secreted eGFP expression
Reagent: single siRNA against mouse genes, 0.8 pmol siRNA per well (2 µl of 400 nM stock)
Time to read-out: 3 days
Detection: 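Percent of the per-plate non-targeting control median for intracellular GFP per well by laser scanning cytometry and for cell viability by ATP luminescence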
Direction: GFP, % of control: higher = more GFP per well, higher productivity; viability (ATP), % of control: higher = more viable cells (more ATP)
Hit rule: 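Called active when intracellular GFP, relative to negative control, is at or above 120%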

The opening 2 entries, ahead of the listing:
Dusp1 (dual specificity phosphatase 1) #1 → GFP, % of control: 58.6; viability (ATP), % of control: 68.6
Dusp1 (dual specificity phosphatase 1) #2 → GFP, % of control: 101; viability (ATP), % of control: 84.2

Main list, repeating the preview:
Dusp1 (dual specificity phosphatase 1) #1 → GFP, % of control: 58.6; viability (ATP), % of control: 68.6
Dusp1 (dual specificity phosphatase 1) #2 → GFP, % of control: 101; viability (ATP), % of control: 84.2
Serpina3n (serine (or cysteine) peptidase inhibitor, clade A, member 3N) #1 → GFP, % of control: 69.1; viability (ATP), % of control: 91.3
Serpina3n (serine (or cysteine) peptidase inhibitor, clade A, member 3N) #2 → GFP, % of control: 84.5; viability (ATP), % of control: 94.8
Serpina3n (serine (or cysteine) peptidase inhibitor, clade A, member 3N) #3 → GFP, % of control: 121 (active); viability (ATP), % of control: 70.5
Slc15a4 #1 → GFP, % of control: 106; viability (ATP), % of control: 96.7
Slc15a4 #2 → GFP, % of control: 51.7; viability (ATP), % of control: 82.2
Slc15a4 #3 → GFP, % of control: 78.6; viability (ATP), % of control: 89.5
Sftpd (surfactant associated protein D) #1 → GFP, % of control: 92.2; viability (ATP), % of control: 97.6
Sftpd (surfactant associated protein D) #2 → GFP, % of control: 96.7; viability (ATP), % of control: 93.7
Tbc1d13 (TBC1 domain family, member 13) #1 → GFP, % of control: 35.9; viability (ATP), % of control: 38.5
Tbc1d13 (TBC1 domain family, member 13) #2 → GFP, % of control: 70.2; viability (ATP), % of control: 63.9
Tbc1d13 (TBC1 domain family, member 13) #3 → GFP, % of control: 80.8; viability (ATP), % of control: 79
Cracr2b (calcium release activated channel regulator 2B) #1 → GFP, % of control: 59.4; viability (ATP), % of control: 56
Cracr2b (calcium release activated channel regulator 2B) #2 → GFP, % of control: 74; viability (ATP), % of control: 71.8
Cracr2b (calcium release activated channel regulator 2B) #3 → GFP, % of control: 93.9; viability (ATP), % of control: 104
P3h3 (prolyl 3-hydroxylase 3) #1 → GFP, % of control: 90.1; viability (ATP), % of control: 107
P3h3 (prolyl 3-hydroxylase 3) #2 → GFP, % of control: 71.6; viability (ATP), % of control: 88
Spty2d1 (SPT2 chromatin protein domain containing 1) #1 → GFP, % of control: 108; viability (ATP), % of control: 120
Spty2d1 (SPT2 chromatin protein domain containing 1) #2 → GFP, % of control: 93.8; viability (ATP), % of control: 90
Spty2d1 (SPT2 chromatin protein domain containing 1) #3 → GFP, % of control: 95.7; viability (ATP), % of control: 125
Ptma (prothymosin alpha) #1 → GFP, % of control: 87.6; viability (ATP), % of control: 66.7
Ptma (prothymosin alpha) #2 → GFP, % of control: 44.9; viability (ATP), % of control: 48.8
Ptma (prothymosin alpha) #3 → GFP, % of control: 73.5; viability (ATP), % of control: 66.8
Spata18 (spermatogenesis associated 18) #1 → GFP, % of control: 69.6; viability (ATP), % of control: 65.2
Spata18 (spermatogenesis associated 18) #2 → GFP, % of control: 143 (active); viability (ATP), % of control: 93.2
Spata18 (spermatogenesis associated 18) #3 → GFP, % of control: 78.2; viability (ATP), % of control: 61.5
